Test results reported in patent publication US20250171534A1.
Numbering of substitutions follows the chain as printed. No constants are given. Whether binding was seen depends on the method and setting. Some binding calls cover weakened binding; strength is not graded here. One block for each binder: values may come before it.

Sequences of proteins named here, by UniProt entry; tags and fusion partners are left off. A change or cut given only in a name is not applied to a line headed by its entry. Residues count along the entry.
UniProt O75019, residues 17-489: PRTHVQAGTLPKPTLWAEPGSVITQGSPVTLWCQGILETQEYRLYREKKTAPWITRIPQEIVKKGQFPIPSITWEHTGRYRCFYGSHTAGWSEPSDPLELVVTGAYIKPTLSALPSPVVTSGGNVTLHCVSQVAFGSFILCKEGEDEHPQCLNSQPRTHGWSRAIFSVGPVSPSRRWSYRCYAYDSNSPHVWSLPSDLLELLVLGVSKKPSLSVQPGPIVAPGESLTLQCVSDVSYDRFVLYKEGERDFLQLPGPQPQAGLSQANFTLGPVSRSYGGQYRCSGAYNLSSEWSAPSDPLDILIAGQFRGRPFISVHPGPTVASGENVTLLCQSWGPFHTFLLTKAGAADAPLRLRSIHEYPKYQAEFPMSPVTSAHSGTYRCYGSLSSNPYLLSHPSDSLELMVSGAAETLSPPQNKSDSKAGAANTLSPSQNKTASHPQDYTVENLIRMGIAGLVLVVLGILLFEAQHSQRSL
UniProt Q8N423: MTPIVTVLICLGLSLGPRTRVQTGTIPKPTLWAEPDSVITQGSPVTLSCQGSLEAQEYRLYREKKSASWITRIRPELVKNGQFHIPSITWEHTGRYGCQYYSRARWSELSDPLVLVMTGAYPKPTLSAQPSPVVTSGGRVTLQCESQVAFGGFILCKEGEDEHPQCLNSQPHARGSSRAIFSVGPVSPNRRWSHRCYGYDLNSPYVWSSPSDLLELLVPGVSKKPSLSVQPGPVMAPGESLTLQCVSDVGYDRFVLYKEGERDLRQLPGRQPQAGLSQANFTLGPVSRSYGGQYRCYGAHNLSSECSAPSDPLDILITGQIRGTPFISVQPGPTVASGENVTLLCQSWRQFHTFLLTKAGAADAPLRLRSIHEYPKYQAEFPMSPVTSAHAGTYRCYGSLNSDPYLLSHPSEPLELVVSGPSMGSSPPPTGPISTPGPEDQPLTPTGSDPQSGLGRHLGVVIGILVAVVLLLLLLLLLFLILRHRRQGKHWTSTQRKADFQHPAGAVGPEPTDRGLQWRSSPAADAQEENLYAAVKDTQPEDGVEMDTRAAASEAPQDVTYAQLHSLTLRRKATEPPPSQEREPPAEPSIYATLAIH
UniProt Q8NHL6: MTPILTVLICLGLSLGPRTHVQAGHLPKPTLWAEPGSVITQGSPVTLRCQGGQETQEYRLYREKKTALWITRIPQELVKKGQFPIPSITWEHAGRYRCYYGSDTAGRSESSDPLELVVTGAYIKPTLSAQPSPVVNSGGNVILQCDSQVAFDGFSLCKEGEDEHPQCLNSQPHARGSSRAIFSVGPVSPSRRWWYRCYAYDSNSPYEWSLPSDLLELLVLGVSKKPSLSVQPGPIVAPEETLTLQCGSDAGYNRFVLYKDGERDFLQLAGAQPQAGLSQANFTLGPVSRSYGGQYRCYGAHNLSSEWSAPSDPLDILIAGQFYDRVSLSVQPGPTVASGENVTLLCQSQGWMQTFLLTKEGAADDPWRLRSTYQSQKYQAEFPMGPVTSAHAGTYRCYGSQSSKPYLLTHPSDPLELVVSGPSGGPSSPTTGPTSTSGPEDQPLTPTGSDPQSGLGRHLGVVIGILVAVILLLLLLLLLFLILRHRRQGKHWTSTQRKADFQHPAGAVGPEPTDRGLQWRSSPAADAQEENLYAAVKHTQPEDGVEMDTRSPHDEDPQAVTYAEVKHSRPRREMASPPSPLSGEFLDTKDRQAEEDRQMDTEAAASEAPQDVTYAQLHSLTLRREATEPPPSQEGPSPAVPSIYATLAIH
UniProt O75022, residues 24-631: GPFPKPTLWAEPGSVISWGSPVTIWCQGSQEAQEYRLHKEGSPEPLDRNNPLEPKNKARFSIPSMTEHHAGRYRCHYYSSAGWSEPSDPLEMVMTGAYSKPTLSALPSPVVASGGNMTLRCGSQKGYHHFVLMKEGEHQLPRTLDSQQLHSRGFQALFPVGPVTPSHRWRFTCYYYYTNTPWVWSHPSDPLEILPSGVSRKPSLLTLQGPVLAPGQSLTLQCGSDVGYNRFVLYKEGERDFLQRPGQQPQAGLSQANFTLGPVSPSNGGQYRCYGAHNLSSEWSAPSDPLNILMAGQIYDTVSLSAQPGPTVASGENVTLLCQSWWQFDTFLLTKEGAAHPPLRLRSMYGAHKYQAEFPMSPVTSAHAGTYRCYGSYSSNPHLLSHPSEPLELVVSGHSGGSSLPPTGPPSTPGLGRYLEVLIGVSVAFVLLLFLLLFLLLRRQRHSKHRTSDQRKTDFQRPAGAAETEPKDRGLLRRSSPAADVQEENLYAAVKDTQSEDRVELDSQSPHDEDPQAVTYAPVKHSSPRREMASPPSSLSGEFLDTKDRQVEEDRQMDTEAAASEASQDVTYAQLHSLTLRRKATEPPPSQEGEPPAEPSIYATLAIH
UniProt Q6PI73, residues 24-481: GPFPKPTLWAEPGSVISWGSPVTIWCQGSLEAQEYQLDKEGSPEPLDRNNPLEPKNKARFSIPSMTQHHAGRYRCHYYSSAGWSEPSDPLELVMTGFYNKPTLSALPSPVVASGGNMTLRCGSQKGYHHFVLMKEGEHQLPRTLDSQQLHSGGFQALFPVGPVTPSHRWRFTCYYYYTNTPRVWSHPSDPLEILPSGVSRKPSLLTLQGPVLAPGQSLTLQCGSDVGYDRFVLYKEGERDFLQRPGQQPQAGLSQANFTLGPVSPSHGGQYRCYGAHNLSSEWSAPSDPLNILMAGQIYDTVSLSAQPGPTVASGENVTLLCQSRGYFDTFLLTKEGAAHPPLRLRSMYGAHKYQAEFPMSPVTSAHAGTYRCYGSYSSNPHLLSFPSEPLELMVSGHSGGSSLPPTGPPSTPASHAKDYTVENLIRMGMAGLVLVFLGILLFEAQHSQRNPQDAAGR

How the values were obtained:
[1] = target: LILRA1 expressed on cells (human) (UniProt O75019); test: flow cytometry on CHO-LILRA1 cells
[2] = target: LILRA1 expressed on cells (human) (UniProt O75019); test: flow cytometry on CHO-LILRA1 cells (CHO-RA1), titrated antibody, labelled anti-human Fc, gMFI
[3] = target: human LILRB2 expressed on cells (human) (UniProt Q8N423); test: flow cytometry, CHO-LILRB2 cells
[4] = target: human LILRB2 expressed on cells (human) (UniProt Q8N423); test: told in the legend of FIG. 21; assay not named
[5] = target: human LILRB2 expressed on cells (human) (UniProt Q8N423); test: told in the legend of FIG. 22; assay not named
[6] = target: human LILRB1 expressed on cells (human) (UniProt Q8NHL6); test: flow cytometry, CHO-LILRB1 cells
[7] = target: human LILRB1 expressed on cells (human) (UniProt Q8NHL6); test: flow cytometry, Jurkat-LILRB1 cells
[8] = target: human LILRB2 expressed on cells (human) (UniProt Q8N423); test: flow cytometry, Jurkat-LILRB2 cells
[9] = target: human LILRB1 expressed on cells (human) (UniProt Q8NHL6); test: flow cytometry, Jurkat-LILRB1 cells; blocked ligand: APC HLA-G trimer tetramer
[10] = target: human LILRB2 expressed on cells (human) (UniProt Q8N423); test: flow cytometry, Jurkat-LILRB2 cells; blocked ligand: APC HLA-G monomer tetramer
[11] = target: LILRB3 expressed on cells (human) (UniProt O75022); test: flow cytometry on CHO-LILRB3 cells
[12] = target: LILRA6 expressed on cells (human) (UniProt Q6PI73); test: flow cytometry on CHO-LILRA6 cells
[13] = target: LILRB3 expressed on cells (human) (UniProt O75022); test: flow cytometry on CHO-LILRB3 cells (CHO-RB3), titrated antibody, labelled anti-human Fc, gMFI
[14] = target: LILRA6 expressed on cells (human) (UniProt Q6PI73); test: flow cytometry on CHO-LILRA6 cells (CHO-RA6), titrated antibody, labelled anti-human Fc, gMFI
[15] = target: human LILRB1 expressed on cells (human) (UniProt Q8NHL6); test: flow cytometry, CHO-LILRB1 cells; blocked ligand: APC HLA-G trimer tetramer
[16] = target: LILRA1 expressed on cells (human) (UniProt O75019); test: flow cytometry on transiently transfected 293T cells, 5 µg/mL antibody
[17] = target: LILRA1 expressed on cells (human) (UniProt O75019); test: flow cytometry on 293T cells transiently expressing LILRA1, antibody 5 µg/mL, APC anti-human Fc; gMFI as fold to IgG staining

binding [6]: binds
B3: #45 (antibody, human IgG1, V domains shown)
VH: QIQLLQSGPELKKPGETVKISCKASGYTFTDYSMHWVKQAPGKGLKWMGWINTETGEPTYADDFKGRFAFSLETSASTAYLQINNLKNEDTATYFCARVVRRGYFDVWGAGTTVTVSS
VL: DIQMTQSPASLSASVGETVTITCRASGNIHNYLAWYQQKQGKSPQVLVYNAKTLADGVPSRFSGSGSGTQYSLKINSLQPEDFGSYYCQHFWSTPFTFGSGTKLEIK

binding [7]: binds
binding [8]: binds
binding [9]: binds
binding [10]: binds
B4: D2M002-101 (antibody, V domains shown)
VH: QVQLVQSGAEVKKPGASVKVSCKASGYTFTRYVMHWVRQAPGQRLEWMGWINPNNEETKYSQKFKGRVTLTRDTSASTAYMELSSLRSEDTAVYYCARADLEILPYYDHARNAMDYWGQGTLVTVSS
VL: DIQMTQSPSSVSASVGDRVTITCRASENIYSHLAWYQQKPGKAPKLLVYNAKSLQSGVPSRFSGSGSGTDFTLTISSLQPEDFATYYCQHFWSTPPTFGGGTKVEIK

binding [6]: binds
binding [3]: binds
B10: #29 (antibody, human IgG1, V domains shown)
VH: EVQLQQSGAEVKKPGASVKISCKATGYTFSSYWIEWVKQRPGHGLEWIGEILPGSGSTNYNEKFKGKATFTADTSSNTAYMQLSSLTSEDFTVYYCARSGAGGYDSGAFGYWGQGTLVTVSS
VL: DIVMTQSPASLAVSLGQRATISCRASESIDTYGNSFMHWYQQKPGQPPKLLIYRASNLESGIPARFSGSGSRTDFTLTINPVEADDVATYYCQQSNEDPWTFGGGTKLEIK

binding [6]: binds
binding [3]: binds
binding [15]: binds
B11: #27 (antibody, human IgG1, V domains shown)
VH: B10 VH with V11L, K12M, A24I, G44D, T69S, S84N, F91S, T92A, G110A, S122A
VL: B10 VL with M4L, I29V, A55T

binding [6]: binds
binding [3]: binds
B12: #18 (antibody, human IgG1, V domains shown)
VH: B10 VH with V11L, K12M, A24T, Y27N, G44D, S84N, F91S, T92A, G110A, S122A
VL: B10 VL with M4L, I29V, T31S, A55T

binding [6]: binds
binding [3]: binds
B13: #17 (antibody, human IgG1, V domains shown)
VH: EVQLQQSGAELMKPGASVKISCKTTGNTFSSYWIEWVKQRPGHDLEWIGEILPGSGSSNYNEKFKGKATFTADTSSNTAYMQLNSLTSEDSAVYYCARSGAGGYDSGAFAYWGQGTLVTVSA
VL: B10 VL with M4L, I29V, T31S, A55T, A64S

binding [6]: binds
binding [3]: binds
B14: #21 (antibody, human IgG1, V domains shown)
VH: B13 VH with E1Q, T24A, N27S, D44G, S58T, N84S
VL: B10 VL with M4L, I29V, A55T

binding [6]: binds
binding [3]: binds
B15: #35 (antibody, human IgG1, V domains shown)
VH: B13 VH with E1Q, K19R, T24A, N27Y, Y32S, D44G, S58T, N84S, A110T
VL: B10 VL with M4L

binding [6]: binds
binding [3]: binds
B20: #12 (antibody, human IgG1, V domains shown)
VH: B10 VH with E1Q, V2I, Q5L, V11L, K12M, S31N, F91S, T92A, G110A
VL: B10 VL with M4L, I29V, T31S, A55T, T89A

binding [6]: binds
binding [3]: binds
B21: #36 (antibody, human IgG1, V domains shown)
VH: B13 VH with E1Q, K19R, T24A, N27Y, Y32S, D44G, S57T, S58T, N84S, A110T
VL: B10 VL with M4L

binding [6]: binds
binding [3]: binds
B23: #31 (antibody, human IgG1, V domains shown)
VH: QVQMQPFGAELMKPGASVRISCKATGYTFSSSWIEWVKQRPGHGLEWIGEILPGSGTTNYNEKFKGKATFTADTSSNTAYMQLSSLTSEDSAVYYCARSGAGGYDSGAFTYWGQGTLVTVSA
VL: B10 VL with M4L

binding [6]: binds
binding [3]: binds
binding [15]: binds
B24: #22 (antibody, human IgG1, V domains shown)
VH: B13 VH with E1Q, T24A, N27Y, F29L, D44G, S58T, N84S
VL: B10 VL with M4L, I29V, A55T

The remaining lines, values behind:

B1: D2M002-126 (antibody, V domains shown)
VH: QVQLVQSGAEVKKPGASVKVSCKASGYTFTSYWIEWVRQAPGQGLEWIGEILPGDESTNYNAKFKGRVTFTTDTSTSTAYMELRSLRSDDTAVYYCARSGAGGYDSGAFAYWGQGTLVTVSS
VL: AIQLTQSPSSLSASVGDRVTITCRASESVDTYGNSFMHWYQQKPGKAPKLLVYRTSNLESGVPSRFSGSGSGTDFTLTISSLQPEDFATYYCQQSNEDPWTFGGGTKVEIK
binding [1]: binds
binding [2]: binds

B2: D2M002-044 (antibody, human IgG1, V domains shown)
VH: EVQLQQSGAELVRPGALVKLSCKGSGFNIKDYYMHWVRQRPEQGLEWIGWIDPENGNTVYAPKFQGKASITSDTSSNIAYLQFSSLTSEDTAVYYCARSRDHGAMDYWGQGTSVTVSS
VL: DVQITQSPAIMSASPGEKVTLTCSASSSVSSSNLYWYQQKPGSSPKLWIYSTSNLASGVPARFSGSGFGTSYALTISSMEAEDAASYFCHQWSSYPYTFGGGTKLEIK
binding [3]: binds
binding [4]: binds
binding [5]: binds

B5: D2M002-103HV1 (antibody, V domains shown)
VH: B4 VH with M48I, W50Y, N112Y
VL: B4 VL
binding [11]: binds
binding [1]: binds
binding [12]: binds
binding [13]: binds
binding [2]: binds
binding [14]: binds

B6: #16 (antibody, human IgG1, V domains shown)
VH: B13 VH with T24A, S58T
VL: B10 VL with V3E, T31S, A55T
binding [6]: binds
binding [3]: binds
binding [15]: binds

B7: #28 (antibody, human IgG1, V domains shown)
VH: B10 VH with V11L, K12M, F91S, T92A, G110A
VL: B10 VL with I29V, A55T
binding [6]: binds
binding [3]: binds

B8: #41 (antibody, human IgG1, V domains shown)
VH: DVQLQQSGAELMKPGASVKISCKATGYTFSSSWIEWVKQRPGHGLEWIGEILPGSGNTSYNEKFKGKATFTADTSSSAAYMQLSSLTSEDSAVYYCARSGLYYDYGGFAYWGQGTLVTVSA
VL: B10 VL with M4L, I29V, A55T, W100F, G104S
binding [6]: binds
binding [3]: binds

B9: D2M002-026 (antibody, V domains shown)
VH: QVQLQQPGAELMKPGASVKISCKATGYTFSSYWIEWVKQRPGHGLEWIGEILPGDGSTNYNAKFKGQATFTADTSSNTAYMQFSSLTSEDSAVYYCARSGAGGYDSGAFAYWGQGTLVTVSS
VL: B10 VL with M4L, I29V, I52V, A55T, R72G
binding [1]: binds
binding [16]: binds
binding [2]: binds
binding [17]: binds

B16: #11 (antibody, human IgG1, V domains shown)
VH: B13 VH with T24A, N27Y, S31N, D44G, S58T, N59D, K65E, N84S
VL: B10 VL with V3Q, I29V, A55T
binding [6]: binds
binding [3]: binds
binding [15]: binds

B17: #8 (antibody, human IgG1, V domains shown)
VH: B13 VH with S7P, T24A, N27Y, Y32S, I34T, D44G, S58T, N84S
VL: B10 VL with M4L, A55T
binding [6]: binds
binding [3]: binds
binding [15]: binds

B18: #23 (antibody, human IgG1, V domains shown)
VH: B9 VH with L4M, S31R, S88Y
VL: B10 VL with M4L, I29V, A55T
binding [6]: binds
binding [3]: binds

B19: #40 (antibody, human IgG1, V domains shown)
VH: B13 VH with S55R, S58T, Y60N, T69P, A101G
VL: B10 VL with M4L, I29V, A55T
binding [6]: binds

B22: #20 (antibody, human IgG1, V domains shown)
VH: B13 VH with E1Q, L4F, A9V, T24A, S31N, S58T
VL: B10 VL with I29V, T31S, A55T
binding [6]: binds
binding [3]: binds
